Values from PubChem BioAssay AID1259298 (Sanger Institute, 2017)
The deposit covers 794 reagents; this is a part drawn at random. 20 of them (2.5%) were called active. 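Calls rest only on the knock-down-alone score; drug synergy scores played no part in them.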 Entries without a mark were called inactive. Viability is capped at 1. Further read-outs or replicates are left out here. The record does not give: the amount of reagent, the time to read-out.

Aim: 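Kinases whose loss strengthens killing by BYL719, cetuximab or trametinib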 (primary screen)
System: HT55 human colorectal cancer cell line
Reagent: siRNA pool against human genes
Conditions: anchor drug BYL719 1 µM, cetuximab 5 µg/ml or trametinib 10 nM, or DMSO vehicle alone
Detection: 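Replicate-averaged viability versus wells of non-targeting pool; knock-down-only robust z-score; per-drug synergy score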
Scale: robust z-score, knock-down alone: higher = more cells remaining; low means essential gene; viability vs control pool, no drug: higher = more viable cells
Units: viability vs control pool, no drug in fraction
Hit rule: 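Essential when the robust z-score for knock-down alone with DMSO is below -3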
Meaning of the calls: active = essential (knock-down alone); inactive = no change alone

CTNNB1 scored robust z-score, knock-down alone -1.4; viability vs control pool, no drug 0.845.
Against RSKR the deposit lists robust z-score, knock-down alone 0.58; viability vs control pool, no drug 1.
With knock-down of PASK the results were robust z-score, knock-down alone 0.58; viability vs control pool, no drug 1.
STK4 showed robust z-score, knock-down alone 0.58; viability vs control pool, no drug 1.
With knock-down of CIB2, the record shows robust z-score, knock-down alone 0.58; viability vs control pool, no drug 1.
Knock-down of MARK3 came out at: robust z-score, knock-down alone 0.0958; viability vs control pool, no drug 0.962.
After knock-down of ATRX, the screen gave robust z-score, knock-down alone 0.58; viability vs control pool, no drug 1.
CTCF scored robust z-score, knock-down alone -0.872; viability vs control pool, no drug 0.886.
With knock-down of DDR2 the results were robust z-score, knock-down alone 0.58; viability vs control pool, no drug 1.
ZC3H11A gave robust z-score, knock-down alone 0.0821; viability vs control pool, no drug 0.961.
Depletion of EIF2AK2 resulted in: robust z-score, knock-down alone -0.86; viability vs control pool, no drug 0.887.
With knock-down of PIK3CA the results were robust z-score, knock-down alone -0.0251; viability vs control pool, no drug 0.953.
After knock-down of CDC42BPG the results were robust z-score, knock-down alone 0.58; viability vs control pool, no drug 1.
After knock-down of MAP3K15, the record shows robust z-score, knock-down alone 0.388; viability vs control pool, no drug 0.985.
Silencing of CNOT1 resulted in: robust z-score, knock-down alone -0.106; viability vs control pool, no drug 0.946.
Depletion of FGFR4 resulted in: robust z-score, knock-down alone 0.58; viability vs control pool, no drug 1.
Silencing of HIPK3 resulted in: robust z-score, knock-down alone -0.66; viability vs control pool, no drug 0.903.
Knock-down of PIP5K1A resulted in: robust z-score, knock-down alone -0.501; viability vs control pool, no drug 0.915.
Knock-down of NEK4 resulted in: robust z-score, knock-down alone -3.27 (active); viability vs control pool, no drug 0.699.
CDK16 showed robust z-score, knock-down alone 0.58; viability vs control pool, no drug 1.
Against TYRO3 the deposit lists robust z-score, knock-down alone 0.58; viability vs control pool, no drug 1.
Knock-down of EPHA8 resulted in: robust z-score, knock-down alone -1.32; viability vs control pool, no drug 0.852.
After knock-down of PRKCSH, the screen gave robust z-score, knock-down alone 0.58; viability vs control pool, no drug 1.
Knock-down of NTRK1 gave: robust z-score, knock-down alone -2.14; viability vs control pool, no drug 0.787.
Silencing of MAP3K5 came out at: robust z-score, knock-down alone 0.164; viability vs control pool, no drug 0.967.
LMTK3 gave robust z-score, knock-down alone 0.0138; viability vs control pool, no drug 0.956.
After knock-down of TAB1 the results were robust z-score, knock-down alone 0.58; viability vs control pool, no drug 1.
After knock-down of SRMS, the screen gave robust z-score, knock-down alone -1.65; viability vs control pool, no drug 0.826.
